{"sequences": {"note": "Chains of the proteins cited; added tags and fusions are not shown.", "UniProt P18054, whole entry, looked up": "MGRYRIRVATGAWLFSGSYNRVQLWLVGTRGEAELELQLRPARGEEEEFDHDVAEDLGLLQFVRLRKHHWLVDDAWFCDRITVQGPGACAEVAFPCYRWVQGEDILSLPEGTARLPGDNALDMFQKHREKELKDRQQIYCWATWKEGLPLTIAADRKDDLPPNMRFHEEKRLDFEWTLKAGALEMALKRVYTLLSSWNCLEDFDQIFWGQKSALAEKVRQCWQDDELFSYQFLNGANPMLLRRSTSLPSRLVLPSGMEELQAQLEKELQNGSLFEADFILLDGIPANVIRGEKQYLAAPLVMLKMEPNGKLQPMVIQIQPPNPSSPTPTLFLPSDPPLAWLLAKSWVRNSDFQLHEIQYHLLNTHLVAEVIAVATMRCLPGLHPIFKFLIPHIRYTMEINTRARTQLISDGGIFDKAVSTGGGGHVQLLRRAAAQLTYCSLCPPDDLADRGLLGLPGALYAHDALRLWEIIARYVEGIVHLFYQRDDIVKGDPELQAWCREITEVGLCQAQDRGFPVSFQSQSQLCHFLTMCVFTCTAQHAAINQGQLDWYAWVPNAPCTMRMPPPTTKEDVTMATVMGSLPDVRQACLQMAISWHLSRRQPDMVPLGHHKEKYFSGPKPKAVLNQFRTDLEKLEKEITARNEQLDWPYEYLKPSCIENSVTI"}, "source": "PubChem BioAssay AID1671190", "about": "(National Center for Advancing Translational Sciences (NCATS), 2021)", "note": "In all, about 580,000 compounds went through this assay and about 6,100 (1.1%) were called active. The shares of active, inactive and inconclusive entries below differ from those in the screen. The call rests on the fitted dose curve; in most records, active means well fitted inhibition curve with a large enough effect; inconclusive means small, poorly fitted or top-dose-only effect, or another doubt; inactive means no such curve, though single readings can be large or run the other way. A potency beside an inconclusive call is a rough fit, not a confirmed value. On the % scale 0 is the no-effect control and ±100 the full control effect; potency means the concentration at half of the fitted maximal effect."}
{"biological_target": "Polyunsaturated fatty acid lipoxygenase ALOX12 (Homo sapiens) (UniProt P18054)", "assay": "Primary qHTS assay for inhibitors of human arachidonate 12S-lipoxygenase (ALOX12): Round 2", "settings": "purified 12hLO, xylenol orange hydroperoxide absorbance; activity change, negative = inhibition: at 108 µM (top of the series) unless noted", "procedure,_shortened": "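Purified human 12hLO at 150 nM in 25 mM Hepes, 0.01% Triton X-100, pH 7.0, preincubated 15 min at room temperature with compound. Reaction started with 40 uM arachidonic acid, 30 min at room temperature. Hydroperoxide measured by Fe-xylenol orange, 573/405 nm absorbance ratio.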"}
{"compound": "CC/C=C(/C)C(=O)NCCCN1CCCC1", "activity change, negative = inhibition": "inactive: 1.92%"}
{"compound": "COc1ccc(-c2nnc(SCC(=O)Nc3cc(C)on3)n2C2CCCCC2)cc1", "activity change, negative = inhibition": "inactive: -15.1%"}
{"compound": "COc1ccc(-c2ccc(CNc3ccc4[nH]c(=O)[nH]c4c3)o2)cc1Cl", "Potency": "inconclusive: 79.4 µM [inhibitor, partial curve, poor fit]"}
{"compound": "COc1ccc(NC(=O)CN(C)C2CCCCC2)cc1Cl", "activity change, negative = inhibition": "inactive: -5.5%"}
{"compound": "CC1CCCN(c2nc(NCc3ccco3)nc(N)c2[N+](=O)[O-])C1", "note": "(stereo not drawn)", "activity change, negative = inhibition": "inactive: -28.1%"}
{"compound": "CC(C)(COP(=O)(O)OP(=O)(O)OC[C@H]1O[C@@H](n2cnc3c(N)ncnc32)[C@H](O)[C@@H]1OP(=O)(O)O)[C@H](O)C(=O)NCCC(=O)NCCS", "Potency": "inconclusive: 15.8 µM [inhibitor, partial curve, poor fit]"}
{"compound": "COC(=O)c1ccc(CNC(=O)COC(=O)c2cc(Cl)ccc2O)cc1", "Potency": "inconclusive: 141 µM [inhibitor, single point]"}
{"compound": "Cc1cccc(NCC(=O)NC(=O)NCc2ccccc2)c1C(N)=O", "Potency": "inconclusive: 100 µM [inhibitor, single point]"}
{"compound": "COc1ccc(-c2cc(C(=O)O)no2)cc1OC", "Potency": "inconclusive: 31.6 µM [inhibitor, partial curve]"}
{"compound": "N#CC(C(=O)/C=C/c1ccccc1)C(=O)Nc1ccccc1Cl", "note": "(stereo not drawn)", "Potency": "inconclusive: 20 µM [inhibitor, partial curve, poor fit]"}
{"compound": "O/N=C(\\c1ccc(O)cc1O)c1ccccc1F", "Potency": "inconclusive: 56.2 µM [inhibitor, partial curve, poor fit]"}
{"compound": "Cc1ccc(C)c(N(Cc2cc3ccc(C)cc3[nH]c2=O)C(=O)c2ccco2)c1", "Potency": "inconclusive: 50.1 µM [inhibitor, partial curve, poor fit]"}
{"compound": "O=C(c1ccccc1)N1CCN(c2ncnc3sc4c(c23)CCC4)CC1", "Potency": "inconclusive: 112 µM [inhibitor, single point]"}
{"compound": "Cc1ccc(OCC(=O)N2CCN(c3ncccn3)CC2)cc1", "Potency": "inconclusive: 89.1 µM [inhibitor, single point]"}
{"compound": "O=C1OC2(CCCCC2)OC(=O)C1=CNc1nccs1", "Potency": "inconclusive: 5.01 µM [inhibitor, full curve, poor fit]"}
{"compound": "CCc1noc(-c2cccn3c(CNC(=O)COc4ccccc4)nnc23)n1", "activity change, negative = inhibition": "inactive: 66.4%"}
{"compound": "COCCNC(=O)c1ccc2c(c1)N(C)C(CC(=O)N1CCCOCC1)CO2", "note": "(stereo not drawn)", "activity change, negative = inhibition": "inactive: -6.17%"}
{"compound": "CCN(CC)C(=O)c1sc2nc(N3CCOCC3)c3c(c2c1N)CCCC3", "Potency": "inconclusive: 35.5 µM [inhibitor, partial curve, poor fit]"}
{"compound": "CCN(C(=O)CN1CCN(c2ccc(OC)cc2)CC1)c1c(N)n(Cc2ccccc2)c(=O)[nH]c1=O", "Potency": "inconclusive: 44.7 µM [inhibitor, partial curve, poor fit]"}
{"compound": "O=C(OCc1c(-c2ccccc2)ncc2ccccc12)c1ccccc1C(F)(F)F", "Potency": "inconclusive: 56.2 µM [inhibitor, partial curve, poor fit]"}
{"compound": "O=C(COC(=O)c1ccc(S(=O)(=O)NCc2ccco2)cc1)NCCC1=CCCCC1", "Potency": "inconclusive: 44.7 µM [inhibitor, partial curve, poor fit]"}
{"compound": "NC(=O)COc1cccc(C(=O)N2C[C@H](CO)C[C@H](CN3CCCC3)C2)c1", "activity change, negative = inhibition": "inactive: 60.1%"}
{"compound": "Cc1ccc(OC2(C(=O)NCc3cccc(N(C)C)c3)CCNCC2)cc1", "Potency": "inconclusive: 28.2 µM [inhibitor, full curve]"}
{"compound": "O=C(Nc1ccc(Cl)cc1)c1csc(C(O)c2cccc(OC(F)(F)F)c2)n1", "note": "(stereo not drawn)", "Potency": "active: 14.1 µM"}
{"compound": "Cc1cc(C)nc(-n2nc(C)cc2Nc2ccccc2)n1", "activity change, negative = inhibition": "inactive: -9.22%"}
{"compound": "Fc1ccc(-c2csc3[n+]2CCS3)cc1", "activity change, negative = inhibition": "inactive: -7.89%"}
{"compound": "Cc1cc(-n2c(C)c3c(C)nnc(C)c3c2C)ccc1N", "Potency": "inconclusive: 39.8 µM [inhibitor, partial curve, poor fit]"}
{"compound": "COc1cccc(/C(C)=N/NC(=O)c2ccc(N(C)C)cc2)c1", "activity change, negative = inhibition": "inactive: 0.676%"}
{"compound": "CC(=O)Nc1cccc(NC(=O)COC(=O)c2ccccc2OCc2cccc(Br)c2)c1", "Potency": "inconclusive: 126 µM [inhibitor, single point]"}
{"compound": "O=C(Nc1ccc(Br)cn1)c1ccc2ccccc2c1", "Potency": "inconclusive: 17.8 µM [inhibitor, single point]"}
{"compound": "CC(C)(C)CN1C(=O)C(=O)NC[C@@H]1CCCCN", "Potency": "inconclusive: 0.447 µM [inhibitor, full curve, poor fit]"}
{"compound": "Cc1cccc(C(=O)NCC(c2ccc3c(c2)OCO3)N2CCN(c3ccccc3F)CC2)c1", "note": "(stereo not drawn)", "Potency": "inconclusive: 50.1 µM [inhibitor, partial curve, poor fit]"}
{"compound": "CCN(CC)CCN(C(=O)c1cccc([N+](=O)[O-])c1)c1nc2ccc(OC)cc2s1", "Potency": "inconclusive: 56.2 µM [inhibitor, partial curve, poor fit]"}
{"compound": "Cc1cc(=O)n2[nH]c(NCc3ccc(F)cc3)nc2n1", "Potency": "inconclusive: 39.8 µM [inhibitor, partial curve, poor fit]"}
{"compound": "FC(F)(F)c1cccc(N2CCN(c3ccc4nnc(-c5ccccc5)n4n3)CC2)c1", "Potency": "inconclusive: 44.7 µM [inhibitor, partial curve, poor fit]"}
{"compound": "COc1cc(CNC(=O)c2nc(C(O)c3ccccn3)oc2C)cc(OC)c1", "note": "(stereo not drawn)", "activity change, negative = inhibition": "inactive: 0.927% [at 176 µM]"}
{"compound": "O=C(OCCCC(F)(F)C(F)(F)F)c1cccc([N+](=O)[O-])c1", "Potency": "inconclusive: 0.0708 µM [inhibitor, full curve, poor fit]"}
{"compound": "COc1ccc(NC(=O)c2ccc3c(=O)n4nc(Nc5cc(C)ccc5C)sc4nc3c2)cc1", "Potency": "inconclusive: 100 µM [inhibitor, partial curve, poor fit]"}
{"compound": "O=C1CN(C(=O)c2ccc(Br)o2)C(c2ccc(F)cc2)c2cc(F)ccc2N1", "note": "(stereo not drawn)", "Potency": "inconclusive: 35.5 µM [inhibitor, partial curve, poor fit]"}
{"compound": "O=C1c2cc(O)c(O)cc2OC(c2ccc(O)c(O)c2)C1O", "note": "(stereo not drawn)", "Potency": "inconclusive: 22.4 µM [inhibitor, full curve, poor fit]"}
{"compound": "CCOc1ccccc1CNC(=O)C1CCN(C2=NS(=O)(=O)C(c3ccc(C)c(C)c3)=C2C)CC1", "activity change, negative = inhibition": "inactive: -27.8%"}
{"compound": "COc1ccc(-c2onc3ccc(Cl)cc23)cc1", "Potency": "inconclusive: 31.6 µM [inhibitor, single point]"}
{"compound": "CCOc1ccccc1NC(=O)c1ccc2ccccc2c1", "activity change, negative = inhibition": "inactive: 7.61%"}
{"compound": "COc1ccccc1C(=O)NCCC(=O)Nc1ccc(S(=O)(=O)N2C(C)CCCC2C)cc1", "note": "(stereo not drawn)", "Potency": "inconclusive: 112 µM [inhibitor, partial curve, poor fit]"}
{"compound": "O=C(Nc1ccc2c(c1)COC2=O)c1ccc(Cl)c(Cl)c1", "Potency": "inconclusive: 39.8 µM [inhibitor, single point]"}
{"compound": "Cc1ccc(C2NC(=O)N(CC(=O)Nc3ccc(F)cc3)C3=C2C(=O)OC3)cc1", "note": "(stereo not drawn)", "Potency": "inconclusive: 17.8 µM [inhibitor, full curve]"}
{"compound": "COc1ccc(/C=C/C(=O)N2CC(C)OC(C)C2)cc1OC", "note": "(stereo not drawn)", "Potency": "inconclusive: 89.1 µM [inhibitor, single point]"}
{"compound": "CCOc1ccc(C(=O)Nc2ccc(N3CCCC3)cc2)cc1", "Potency": "inconclusive: 44.7 µM [inhibitor, single point]"}
{"compound": "Nc1cc([N+](=O)[O-])ccc1C(=O)O", "Potency": "inconclusive: 100 µM [inhibitor, single point]"}
{"compound": "Cc1cccc2sc(NC(=O)CSCc3ccccc3)nc12", "Potency": "inconclusive: 31.6 µM [inhibitor, partial curve]"}
{"compound": "COc1ccc(C(=O)N2CCC(c3nc4ccccc4o3)CC2)cc1", "Potency": "inconclusive: 141 µM [inhibitor, partial curve, poor fit]"}
{"compound": "CCc1nncn1C1CCN(C(=O)c2cc(C)cc(C)c2)CC1", "activity change, negative = inhibition": "inactive: 7.83%"}
{"compound": "O=C(O)/C=C/C(=O)Nc1cc(F)ccc1F", "Potency": "inconclusive: 31.6 µM [inhibitor, partial curve, poor fit]"}
{"compound": "COc1ccc(N2CC3CCC(C2)N3Cc2cccs2)cc1", "Potency": "inconclusive: 112 µM [inhibitor, partial curve, poor fit]"}
{"compound": "Cc1cccc(N2NC3(CCCC(C)C3)NC2=S)c1C", "note": "(stereo not drawn)", "Potency": "active: 8.91 µM"}
{"compound": "O=C(CCc1c[nH]c2ccccc12)NCc1ccc(F)cc1", "activity change, negative = inhibition": "inactive: -2.1%"}
{"compound": "CC1CCCCN1C(=O)CNCc1ccc(F)cc1", "note": "(stereo not drawn)", "Potency": "inconclusive: 0.631 µM [inhibitor, full curve]"}
{"compound": "COCCNc1nc(Oc2ccccc2)c2sccc2n1", "activity change, negative = inhibition": "inactive: 10.8%"}
{"compound": "O=C(c1nnsc1S(=O)(=O)c1ccc(Cl)cc1)N1CCOCC1", "Potency": "inconclusive: 89.1 µM [inhibitor, partial curve, poor fit]"}
{"compound": "CCN(C(=O)Cn1nc2n(c1=O)CCCCC2)c1ccccc1", "activity change, negative = inhibition": "inactive: 10.3%"}
{"compound": "CS(=O)(=O)CCNCc1ccc(-c2ccc3ncnc(Nc4ccc(OCc5cccc(F)c5)c(Cl)c4)c3c2)o1", "Potency": "inconclusive: 20 µM [inhibitor, partial curve, poor fit]"}
{"compound": "CS(=O)(=O)c1ccc(NC(=O)C2CCCN(C(=O)c3ccc(Cl)cc3)C2)cc1", "note": "(stereo not drawn)", "activity change, negative = inhibition": "inactive: 0.589%"}
{"compound": "CN(Cc1cc2cc(F)ccc2[nH]1)C(=O)C1CCC(=O)N(C2CCCC2)C1", "note": "(stereo not drawn)", "activity change, negative = inhibition": "inactive: -9.09%"}
{"compound": "O=C(c1cscn1)N1CC[C@@H]2[C@@H](CCC(=O)N2CCCn2ccnc2)C1", "Potency": "inconclusive: 35.5 µM [inhibitor, partial curve, poor fit]"}
{"compound": "CN(C)[C@@H]1CN(C2CCCC2)CC[C@@H]1CO", "activity change, negative = inhibition": "inactive: 33.8%"}
{"compound": "CC(Sc1ccsc1[N+](=O)[O-])C(=O)NCc1ccco1", "note": "(stereo not drawn)", "Potency": "inconclusive: 44.7 µM [inhibitor, partial curve, poor fit]"}
{"compound": "NC(=O)N/N=C/c1ccccc1Br", "activity change, negative = inhibition": "inactive: -5.5%"}
{"compound": "Cc1oc(-c2nc(C#N)c(N3CCOCC3)o2)cc1S(=O)(=O)N1CCCC1", "Potency": "inconclusive: 50.1 µM [inhibitor, single point]"}
